Test results published in patent US20240373847A1, “HERBICIDAL MALONAMIDES” (BASF SE, priority 2021, published 2024).
Some entries share one result that the patent states for a list of compounds. At least one compound was matched to its structure with a doubt left.

Legend:
Assay type in all cases: in vivo
Avena fatua (AVEFA) = test: greenhouse test, post-emergence treatment; settings: post-emergence method, scale from 0 to 100
[1] = test system: Amaranthus retroflexus (AMARE); test: greenhouse test, post-emergence treatment; settings: 0.250 kg/ha, post-emergence method; scale from 0 to 100
Text: (§1) The culture containers used were plastic flowerpots containing loamy sand with approximately 3.0% of humus as the substrate. The seeds of the test plants were sown separately for each species.
(§2) For the post-emergence treatment, the test plants were first grown to a height of 3 to 15 cm, depending on the plant habit, and only then treated with the active ingredients which had been suspended or emulsified in water. For this purpose, the test plants were either sown directly and grown in the same containers, or they were first grown separately as seedlings and transplanted into the test containers a few days prior to treatment.
(§3) Depending on the species, the test plants were kept at 10-25° C. or 20-35° C., respectively.
(§4) The test period extended over 2 to 4 weeks. During this time, the test plants were tended, and their response to the individual treatments was evaluated.
(§5) Evaluation was carried out using a scale from 0 to 100. 100 means no emergence of the test plants, or complete destruction of at least the aerial moieties, and 0 means no damage, or normal course of growth. A good herbicidal activity is given at values of 70 to <90 and a very good herbicidal activity is given at values of 90 to 100.
(§6) The test plants used in the greenhouse experiments were of the following species: […]

Setaria viridis (SETVI) = test: greenhouse test, post-emergence treatment; settings: 0.250 kg/ha, post-emergence method; scale from 0 to 100
Text: as §1, §2, §3, §4, §5, §6

[2] = test system: Apera spica-venti (APESV); test: greenhouse test, pre-emergence treatment; settings: 0.250 kg/ha, pre-emergence method; scale from 0 to 100
Text: as §1
(§7) For the pre-emergence treatment, the active ingredients, which had been suspended or emulsified in water, were applied directly after sowing by means of finely distributing nozzles. The containers were irrigated gently to promote germination and growth and subsequently covered with transparent plastic hoods until the test plants had rooted.
(§8) This cover caused uniform germination of the test plants, unless this had been impaired by the active ingredients.
as §3, §4, §5, §6

[3] = test system: Echinocloa crus-galli (ECHCG); test: greenhouse test, pre-emergence treatment; settings: 0.250 kg/ha, pre-emergence method; scale from 0 to 100
Text: as §1, §7, §8, §3, §4, §5, §6

[4] = test system: Abutilon theophrasti (ABUTH); test: greenhouse test, post-emergence treatment; settings: post-emergence method, scale from 0 to 100
[5] = test system: Alopercurus myosuroides (ALOMY); test: greenhouse test, post-emergence treatment; settings: post-emergence method, scale from 0 to 100
[6] = test system: Echinocloa crus-galli (ECHCG); test: greenhouse test, post-emergence treatment; settings: post-emergence method, scale from 0 to 100
Text: as §1, §2, §3, §4, §5, §6

[7] = test system: Amaranthus retroflexus (AMARE); test: greenhouse test, pre-emergence treatment; settings: 0.250 kg/ha, pre-emergence method; scale from 0 to 100
Text: as §1, §7, §8, §3, §4, §5, §6

Row | SMILES | herbicidal activity against AVEFA (Avena fatua (AVEFA); 0.250 kg/ha) | herbicidal activity against APESV [2] | herbicidal activity against ABUTH ([4]; 0.250 kg/ha) | herbicidal activity against ALOMY ([5]; 0.250 kg/ha) | other results
1 | COC(=O)C1C=CC(NC(=O)C(C)C(=O)Nc2cccc(Cl)c2)C1 (mixture of isomers) [I.4] | very good herbicidal activity (a very good herbicidal activity is given at values of 90 to 100) | very good herbicidal activity (a very good herbicidal activity is given at values of 90 to 100) | – | – | herbicidal activity against AMARE [1]: very good herbicidal activity (a very good herbicidal activity is given at values of 90 to 100); herbicidal activity against SETVI (Setaria viridis (SETVI)): very good herbicidal activity (a very good herbicidal activity is given at values of 90 to 100); herbicidal activity against ECHCG [3]: very good herbicidal activity (a very good herbicidal activity is given at values of 90 to 100)
2 | COC(=O)C1C=CC(NC(=O)C(C)C(=O)Nc2cccc(C(F)(F)F)c2)C1 (mixture of isomers) [I.5] | very good herbicidal activity (a very good herbicidal activity is given at values of 90 to 100) | very good herbicidal activity (a very good herbicidal activity is given at values of 90 to 100) | good herbicidal activity (A good herbicidal activity is given at values of 70 to <90) | very good herbicidal activity (a very good herbicidal activity is given at values of 90 to 100) | herbicidal activity against ECHCG [3]: good herbicidal activity (A good herbicidal activity is given at values of 70 to <90)
3 | COC(=O)C1C=CC(NC(=O)C(C)C(=O)Nc2ccc(Cl)c(Cl)c2)C1 (mixture of isomers) [I.10] | very good herbicidal activity (a very good herbicidal activity is given at values of 90 to 100) | very good herbicidal activity (a very good herbicidal activity is given at values of 90 to 100) | – | very good herbicidal activity (a very good herbicidal activity is given at values of 90 to 100) | –
4 | CCC(C(=O)Nc1cccc(I)c1)C(=O)NC1C=CC(C(=O)OC)C1 (mixture of isomers) [I.111] | – | very good herbicidal activity (a very good herbicidal activity is given at values of 90 to 100) | very good herbicidal activity (a very good herbicidal activity is given at values of 90 to 100) | good herbicidal activity (A good herbicidal activity is given at values of 70 to <90) | herbicidal activity against ECHCG ([6]; 0.250 kg/ha): very good herbicidal activity (a very good herbicidal activity is given at values of 90 to 100)
5 | CCC(C(=O)Nc1cccc(I)c1)C(=O)NC1C=CC(C(=O)OCC#N)C1 (mixture of isomers) [I.164] | – | – | – | good herbicidal activity (A good herbicidal activity is given at values of 70 to <90) | herbicidal activity against AMARE [1]: good herbicidal activity (A good herbicidal activity is given at values of 70 to <90); herbicidal activity against ECHCG ([6]; 0.250 kg/ha): good herbicidal activity (A good herbicidal activity is given at values of 70 to <90)
6 | COC(=O)[C@@H]1C=C[C@H](NC(=O)C(C)C(=O)Nc2ccc(Cl)cc2)C1 (some centres unmarked) [I.8] | – | – | good herbicidal activity (A good herbicidal activity is given at values of 70 to <90) | good herbicidal activity (A good herbicidal activity is given at values of 70 to <90) | –
7 | C#CCOC(=O)CC(C)NC(=O)C(C)C(=O)Nc1cc(Cl)cc(Cl)c1 (centres unmarked) [I.19] | very good herbicidal activity (a very good herbicidal activity is given at values of 90 to 100) | good herbicidal activity (A good herbicidal activity is given at values of 70 to <90) | – | – | herbicidal activity against AMARE [1]: very good herbicidal activity (a very good herbicidal activity is given at values of 90 to 100); herbicidal activity against ECHCG [3]: good herbicidal activity (A good herbicidal activity is given at values of 70 to <90)
8 | CC(CC(=O)OCC#N)NC(=O)C(C)C(=O)Nc1cc(F)cc(F)c1 (centres unmarked) [I.27] | good herbicidal activity (A good herbicidal activity is given at values of 70 to <90) | – | – | good herbicidal activity (A good herbicidal activity is given at values of 70 to <90) | herbicidal activity against AMARE [1]: good herbicidal activity (A good herbicidal activity is given at values of 70 to <90)
9 | CC(CC(=O)OCC#N)NC(=O)C(C)C(=O)Nc1cc(Cl)cc(Cl)c1 (centres unmarked) [I.28] | – | – | – | – | herbicidal activity against AMARE [7]: very good herbicidal activity (a very good herbicidal activity is given at values of 90 to 100)
10 | CCOC(=O)CC(C)NC(=O)C(C)C(=O)Nc1cc(F)cc(Cl)c1 (centres unmarked) [I.33] | good herbicidal activity (A good herbicidal activity is given at values of 70 to <90) | – | – | good herbicidal activity (A good herbicidal activity is given at values of 70 to <90) | –
11 | COC(=O)[C@@H]1C=C[C@H](NC(=O)C(C)C(=O)Nc2cccc(F)c2)C1 (some centres unmarked) [I.49] | very good herbicidal activity (a very good herbicidal activity is given at values of 90 to 100) | very good herbicidal activity (a very good herbicidal activity is given at values of 90 to 100) | very good herbicidal activity (a very good herbicidal activity is given at values of 90 to 100) | – | herbicidal activity against ECHCG ([6]; 0.250 kg/ha): very good herbicidal activity (a very good herbicidal activity is given at values of 90 to 100); herbicidal activity against ECHCG [3]: good herbicidal activity (A good herbicidal activity is given at values of 70 to <90)
12 | CONC(=O)CC(C)NC(=O)C(C)C(=O)Nc1cc(Cl)cc(Cl)c1 (centres unmarked) [I.78] | good herbicidal activity (A good herbicidal activity is given at values of 70 to <90) | – | – | – | herbicidal activity against AMARE [7]: very good herbicidal activity (a very good herbicidal activity is given at values of 90 to 100)
13 | CCC(C(=O)Nc1cc(Cl)cc(Cl)c1)C(=O)N[C@H]1C=C[C@@H](C(=O)OC)C1 (stereo partly drawn) [I.90, methyl (1S,4R)-4-[2-[(3,5-dichlorophenyl)carbamoyl]butanoylamino]cyclopent-2-ene-1-carboxylate] | – | – | – | – | herbicidal activity against ECHCG ([6]; 0.125 kg/ha): good herbicidal activity (A good herbicidal activity is given at values of 70 to <90); herbicidal activity against ABUTH ([4]; 0.125 kg/ha): very good herbicidal activity (a very good herbicidal activity is given at values of 90 to 100); herbicidal activity against ALOMY ([5]; 0.125 kg/ha): good herbicidal activity (A good herbicidal activity is given at values of 70 to <90)
14 | CCC(C(=O)Nc1cc(F)cc(Cl)c1)C(=O)N[C@H]1C=C[C@@H](C(=O)OC)C1 (some centres unmarked) [I.102] | – | very good herbicidal activity (a very good herbicidal activity is given at values of 90 to 100) | very good herbicidal activity (a very good herbicidal activity is given at values of 90 to 100) | – | herbicidal activity against SETVI (Setaria viridis (SETVI)): very good herbicidal activity (a very good herbicidal activity is given at values of 90 to 100); herbicidal activity against ECHCG ([6]; 0.250 kg/ha): very good herbicidal activity (a very good herbicidal activity is given at values of 90 to 100)
15 | CCC(C(=O)Nc1cc(C)cc(F)c1)C(=O)N[C@H]1C=C[C@@H](C(=O)OC)C1 (some centres unmarked) [I.105] | – | very good herbicidal activity (a very good herbicidal activity is given at values of 90 to 100) | good herbicidal activity (A good herbicidal activity is given at values of 70 to <90) | – | herbicidal activity against SETVI (Setaria viridis (SETVI)): good herbicidal activity (A good herbicidal activity is given at values of 70 to <90); herbicidal activity against ECHCG ([6]; 0.250 kg/ha): very good herbicidal activity (a very good herbicidal activity is given at values of 90 to 100)
16 | CCC(C(=O)Nc1cc(Cl)cc(Cl)c1)C(=O)N[C@H]1C=C[C@@H](C(=O)O)C1 (some centres unmarked) [I.125] | – | – | – | – | herbicidal activity against ECHCG ([6]; 1.000 kg/ha): good herbicidal activity (A good herbicidal activity is given at values of 70 to <90); herbicidal activity against ABUTH ([4]; 1.000 kg/ha): good herbicidal activity (A good herbicidal activity is given at values of 70 to <90); herbicidal activity against ALOMY ([5]; 1.000 kg/ha): good herbicidal activity (A good herbicidal activity is given at values of 70 to <90)
17 | CCC(C(=O)Nc1cc(C)cc(F)c1)C(=O)N[C@H]1C=C[C@@H](C(=O)O)C1 (some centres unmarked) [I.140] | – | – | – | – | herbicidal activity against AVEFA (Avena fatua (AVEFA); 1.000 kg/ha): very good herbicidal activity (a very good herbicidal activity is given at values of 90 to 100); herbicidal activity against ECHCG ([6]; 1.000 kg/ha): good herbicidal activity (A good herbicidal activity is given at values of 70 to <90); herbicidal activity against ALOMY ([5]; 1.000 kg/ha): good herbicidal activity (A good herbicidal activity is given at values of 70 to <90)
